Reference: US12510524B2, “Compositions containing cannabinoid analog conjugates and methods of use” (priority 2014, dated 2025)

Experiments:
[1] = system: DLBCL cancer cell lines; assay: MTS cell viability assay, DLBCL cell lines as a group; assay type: cell-based; conditions: EJ, U2932, CJ and LY19, 72 h incubation, FIGS. 13-16
Method: The effects of SR141716 and VYR206 were analyzed. MTS assays for cell viability (72 h incubation) were performed on diffuse large B-cell lymphoma (DLBCL) cells—LR, MS, RC and DOHH2 (FIGS. 18A-18D) and mantle cell lymphoma (MCL) cells—Jeko, Mino, Rec-1 and JMP1 (FIGS. 19A-19D).

[2] = system: LY19 DLBCL cancer cell line; assay: MTS cell viability assay, LY19; assay type: cell-based; conditions: 72 h incubation

For `Cc1c(C(=O)NN2CCCCC2)nn(-c2ccc(Cl)cc2Cl)c1-c1ccc(I)cc1` [AM251], the “effect on the viability of DLBCL cancer cell lines” value [1] was “significant results depending on the specific cell line” and the “effect on viability, comparison between cell lines” value [2] was “more potent effect on LY19”.
